Results: PubChem BioAssay (NCATS)
The inconclusive results got no clear call from the source; some entries with a clear call stand among them for comparison. Where the call is inconclusive, the potency comes from a doubtful curve fit. Active and inactive are the calls of the source. Calls come from the whole dose curve; as a rule, active = well fitted cell-killing curve with a large enough effect; inconclusive = small, poorly fitted or top-dose-only effect, or effect the other way; inactive = no such curve, though single readings can be large or run the other way.

assay: Quantitative High-Throughput drug screen in 47 multiple myeloma cell lines against the NCATS MIPE library collection: OCIMY5_PLB cell viability assay (AID 1918988); settings: OCI-MY5 myeloma viability, ATP luminescence, 48 h; viability, % of control: at 45.8 µM (top of the series); note: nearly all actives have a fitted effect of over 65% in size;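 for viability, % of control: 100% = DMSO-treated wells and 0% = wells with media alone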
Outline: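 ATP-based CellTiter-Glo luminescence after 48 h drug exposure (37 °C, 5% CO2) of 500 myeloma cells per well. DMSO-only wells set 100% viability, media-only wells 0%; MIPE 4.0 library added by pin tool.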
Potency is the fitted concentration of half-maximal effect.

SMILES	Potency	viability, % of control
COc1ccc2[nH]cc(CCNC(C)=O)c2c1	inconclusive: 33.2 µM [rising, partial curve, poor fit]	–
CN1c2ccccc2C(=O)N2CCc3c([nH]c4ccccc34)C21 (stereo not drawn)	–	inactive: 139%
N#CC(=C(O)c1ccc(Cl)cc1Cl)c1nc2cc(Cl)ccc2c(=O)[nH]1	inconclusive: 0.0012 µM [rising, full curve]	–
CC(c1cc2ccccc2s1)N(O)C(N)=O (stereo not drawn)	inconclusive: 3.32 µM [cytotoxic, full curve, poor fit]	–
Cn1c(=O)c2c(ncn2CC(O)CO)n(C)c1=O (stereo not drawn)	–	inactive: 185%
N[C@@H](Cc1ccc(O)c(O)c1)C(=O)O	inconclusive: 33.2 µM [cytotoxic, single point]	–
CON=C(C(=O)N[C@@H]1C(=O)N2C(C(=O)O)=C(Cn3ccc(=N)n3CCO)CS[C@H]12)c1csc(N)n1	–	inactive: 131%
O=C(O)CCc1ccc(NCc2cccc(Oc3ccccc3)c2)cc1	–	inactive: 151%
